PubChem BioAssay AID743458 | Peter MacCallum Cancer Centre, 2014
The deposit covers about 1,800 reagents; shown is a random part of them. Of all reagents, 732 (41%) are marked active. 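Calls are per siRNA reagent; a gene was deemed confirmed only if most of its four siRNAs scored.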 A number with no mark means an inactive call. The numbers tell different reagents against one gene apart.

- Aim: 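Retest earlier hits with independent siRNAs per gene for restoring vorinostat sensitivity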 (follow-up of hits)
- System: human HCT116-VR colon cancer cells made resistant to vorinostat
- Knock-down reagent: single siRNA or pool against human genes, 25 nM per single siRNA
- Time to read-out: about 72 h after transfection, including 24 h of drug
- Challenge: vorinostat, 2.5 µM final, for 24 h
- Read-out: 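Live-cell fluorescent viability and luminescent caspase 3/7 activity after vorinostat treatment, background subtracted, mean of duplicate plates, as fold change over mock-transfected wells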
- Direction: viability relative to mock: higher = more living cells than mock; caspase activity relative to mock: higher = more apoptosis than mock
- Hit rule: 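Active means a reduced-viability or caspase-activation class, anything else inactive; classes could only be given to wells that looked healthy when left untreated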

gene | reagent no. | viability relative to mock | caspase activity relative to mock | viability hit class | caspase hit class
YJU2B (YJU2 splicing factor homolog B) | 1 | 0.94 | 1.17 | no change | no change
YJU2B (YJU2 splicing factor homolog B) | 2 | 0.52 (active) | 2.29 | reduced viability | no change
YJU2B (YJU2 splicing factor homolog B) | 3 | 0.82 | 1.84 | no change | no change
YJU2B (YJU2 splicing factor homolog B) | 4 | 0.91 (active) | 4.16 | no change | caspase activation
NUP62 (nucleoporin 62) | 1 | 0.86 (active) | 4 | no change | caspase activation
NUP62 (nucleoporin 62) | 2 | 0.85 (active) | 2.58 | no change | caspase activation
NUP62 (nucleoporin 62) | 3 | 0.61 (active) | 3.77 | no change | caspase activation
NUP62 (nucleoporin 62) | 4 | 0.46 (active) | 4.12 | reduced viability | caspase activation
PSMD13 (proteasome 26S subunit, non-ATPase 13) | 1 | 0.42 (active) | 3.17 | reduced viability | caspase activation
PSMD13 (proteasome 26S subunit, non-ATPase 13) | 2 | 0.72 (active) | 6.25 | no change | caspase activation
PSMD13 (proteasome 26S subunit, non-ATPase 13) | 3 | 0.2 | 4.07 | no change | no change
PSMD13 (proteasome 26S subunit, non-ATPase 13) | 4 | 0.74 (active) | 4.77 | no change | caspase activation
SNRPE (small nuclear ribonucleoprotein polypeptide E) | 1 | 0.43 (active) | 0.88 | reduced viability | no change
SNRPE (small nuclear ribonucleoprotein polypeptide E) | 2 | 0.47 (active) | 1.59 | reduced viability | no change
SNRPE (small nuclear ribonucleoprotein polypeptide E) | 3 | 0.49 (active) | 1.32 | reduced viability | no change
SNRPE (small nuclear ribonucleoprotein polypeptide E) | 4 | 0.26 (active) | 1.08 | reduced viability | no change
PSMD12 (proteasome 26S subunit, non-ATPase 12) | 1 | 0.28 | 4.13 | no change | no change
PSMD12 (proteasome 26S subunit, non-ATPase 12) | 2 | 0.68 (active) | 3.69 | no change | caspase activation
PSMD12 (proteasome 26S subunit, non-ATPase 12) | 3 | 0.91 | 1.5 | no change | no change
PSMD12 (proteasome 26S subunit, non-ATPase 12) | 4 | 0.48 (active) | 3.84 | reduced viability | caspase activation
STS (steroid sulfatase) | 1 | 0.92 | 0.86 | no change | no change
STS (steroid sulfatase) | 2 | 0.3 (active) | 1.28 | reduced viability | no change
STS (steroid sulfatase) | 3 | 0.76 | 0.74 | no change | no change
STS (steroid sulfatase) | 4 | 1.02 | 0.9 | no change | no change
RPS7 (ribosomal protein S7) | 1 | 0.23 | 1.7 | no change | no change
RPS7 (ribosomal protein S7) | 2 | 0.29 (active) | 0.52 | reduced viability | no change
RPS7 (ribosomal protein S7) | 3 | 0.26 (active) | 0.45 | reduced viability | no change
RPS7 (ribosomal protein S7) | 4 | 0.22 (active) | 0.62 | reduced viability | no change
GPX4 (glutathione peroxidase 4) | 1 | 0.6 (active) | 5.16 | no change | caspase activation
GPX4 (glutathione peroxidase 4) | 2 | 0.96 | 0.98 | no change | no change
GPX4 (glutathione peroxidase 4) | 3 | 0.96 | 0.9 | no change | no change
GPX4 (glutathione peroxidase 4) | 4 | 0.88 (active) | 3.52 | no change | caspase activation
FLII (FLII actin remodeling protein) | 1 | 1.14 | 2.29 | no change | no change
FLII (FLII actin remodeling protein) | 2 | 0.8 (active) | 4.99 | no change | caspase activation
FLII (FLII actin remodeling protein) | 3 | 0.68 (active) | 5.08 | no change | caspase activation
FLII (FLII actin remodeling protein) | 4 | 0.71 (active) | 3.02 | no change | caspase activation
TRIM49B (tripartite motif containing 49B) | 1 | 0.6 | 2.25 | no change | no change
TRIM49B (tripartite motif containing 49B) | 2 | 0.94 | 1.07 | no change | no change
TRIM49B (tripartite motif containing 49B) | 3 | 0.78 | 0.98 | no change | no change
TRIM49B (tripartite motif containing 49B) | 4 | 0.87 | 1.42 | no change | no change
PRPF38A (pre-mRNA processing factor 38A) | 1 | 0.73 | 1.19 | no change | no change
PRPF38A (pre-mRNA processing factor 38A) | 2 | 0.38 (active) | 1.73 | reduced viability | no change
PRPF38A (pre-mRNA processing factor 38A) | 3 | 0.51 (active) | 1.1 | reduced viability | no change
PRPF38A (pre-mRNA processing factor 38A) | 4 | 0.9 | 1.1 | no change | no change
CEP44 (centrosomal protein 44) | 1 | 0.96 | 1.22 | no change | no change
CEP44 (centrosomal protein 44) | 2 | 0.76 | 0.87 | no change | no change
CEP44 (centrosomal protein 44) | 3 | 0.94 | 1.06 | no change | no change
CEP44 (centrosomal protein 44) | 4 | 0.38 (active) | 5.87 | reduced viability | caspase activation
CNOT1 (CCR4-NOT transcription complex subunit 1) | 1 | 0.92 (active) | 7.06 | no change | caspase activation
CNOT1 (CCR4-NOT transcription complex subunit 1) | 2 | 0.83 (active) | 5.25 | no change | caspase activation
CNOT1 (CCR4-NOT transcription complex subunit 1) | 3 | 0.7 (active) | 6.48 | no change | caspase activation
CNOT1 (CCR4-NOT transcription complex subunit 1) | 4 | 0.78 (active) | 8.43 | no change | caspase activation
CNOT1 (CCR4-NOT transcription complex subunit 1) | 5 | 0.77 (active) | 7.63 | no change | caspase activation
NEK7 (NIMA related kinase 7) | 1 | 0.96 | 1.32 | no change | no change
NEK7 (NIMA related kinase 7) | 2 | 0.81 | 2.37 | no change | no change
NEK7 (NIMA related kinase 7) | 3 | 0.48 (active) | 5.29 | reduced viability | caspase activation
NEK7 (NIMA related kinase 7) | 4 | 0.98 | 1.11 | no change | no change

Laid out differently: 4 of the entries above.
YJU2B (YJU2 splicing factor homolog B) #2
- viability relative to mock: 0.52 (active)
- caspase activity relative to mock: 2.29
- viability hit class: reduced viability
- caspase hit class: no change

YJU2B (YJU2 splicing factor homolog B) #3
- viability relative to mock: 0.82
- caspase activity relative to mock: 1.84
- viability hit class: no change
- caspase hit class: no change

YJU2B (YJU2 splicing factor homolog B) #4
- viability relative to mock: 0.91 (active)
- caspase activity relative to mock: 4.16
- viability hit class: no change
- caspase hit class: caspase activation

NUP62 (nucleoporin 62) #1
- viability relative to mock: 0.86 (active)
- caspase activity relative to mock: 4
- viability hit class: no change
- caspase hit class: caspase activation
